Patent publication US20210393689A1 (JUNO THERAPEUTICS, published 2021)
No constants are given. Whether binding was seen depends on the method and setting. Some entries that bind do so weakly or less than the wild type.

Biological target: T1, murine GPRC5D (murine, UniProt Q9JIL6 1-344)
T1 construct: whole, on cells; also called mGPRC5D; mouse GPRC5D
T1 sequence (looked up): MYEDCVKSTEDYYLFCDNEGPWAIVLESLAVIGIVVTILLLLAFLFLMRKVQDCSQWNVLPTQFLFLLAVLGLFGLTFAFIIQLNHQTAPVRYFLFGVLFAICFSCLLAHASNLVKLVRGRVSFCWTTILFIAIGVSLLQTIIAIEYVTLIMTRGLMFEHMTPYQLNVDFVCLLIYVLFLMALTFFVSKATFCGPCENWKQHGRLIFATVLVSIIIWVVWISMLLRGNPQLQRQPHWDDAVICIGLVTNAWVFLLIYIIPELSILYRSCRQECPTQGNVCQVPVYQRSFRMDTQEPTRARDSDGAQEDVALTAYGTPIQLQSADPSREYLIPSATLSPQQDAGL
Test: Jurkat Nur77-RFP reporter activation after 1:1 co-culture with K562 cells expressing the target (indirect read-out)

binding: binds
B1: GPRC5D-205 VL/VH - long (anti-GPRC5D CAR) (protein)
chain: QSVVTQPPSMSAAPGQQVTISCSGGNSNIERNYVSWYLQLPGTAPKLVIFDNDRRPSGIPDRFSGSKSGTSATLGITGLQTGDEADYYCGTWDSSLRGWVFGGGTKLTVLGSRGGGGSGGGGSGGGGSLEMAEVQLVESGGGLIQPGGSLRLSCAASGFTFSNYAMNWVRQAPGKGLEWVSTINGRGSSTIYADSVKGRFTISRDNSKNTLYLQMNSLRAEDTATYYCARYISRGLGDSWGQGTLVTVESKYGPPCPPCPAPPVAGPSVFLFPPKPKDTLMISRTPEVTCVVVDVSQEDPEVQFNWYVDGVEVHNAKTKPREEQFQSTYRVVSVLTVLHQDWLNGKEYKCKVSNKGLPSSIEKTISKAKGQPREPQVYTLPPSQEEMTKNQVSLTCLVKGFYPSDIAVEWESNGQPENNYKTTPPVLDSDGSFFLYSRLTVDKSRWQEGNVFSCSVMHEALHNHYTQKSLSLSLGKMFWVLVVVGGVLACYSLLVTVAFIIFWVKRGRKKLLYIFKQPFMRPVQTTQEEDGCSCRFPEEEEGGCELRVKFSRSADAPAYQQGQNQLYNELNLGRREEYDVLDKRRGRDPEMGGKPRRKNPQEGLYNELQKDKMAEAYSEIGMKGERRRGKGHDGLYQGLSTATKDTYDALHMQALPPR
